Measurements published in patent EP4640709A1.
These are yes or no findings as the source states them, for the method shown. Binding calls can cover weak binding; strength is not graded here.

Tests used:
[1] = biological target: mCX3CR1-1 (chimeric CX3CR1); assay: flow cytometry, chimeric CX3CR1-expressing Ba/F3 cells
[2] = biological target: hCX3CR1-4 (chimeric CX3CR1); assay: as above
[3] = biological target: hCX3CR1-2 (chimeric CX3CR1); assay: as above
[4] = biological target: hCX3CR1-1 (chimeric CX3CR1); assay: as above
[5] = biological target: hCX3CR1-3 (chimeric CX3CR1); assay: as above
[6] = biological target: mCX3CR1-4 (chimeric CX3CR1); assay: flow cytometry, chimeric CX3CR1-expressing Ba/F3 cells, relative to Synagis
[7] = biological target: mCX3CR1-1 (chimeric CX3CR1); assay: as above
[8] = biological target: hCX3CR1-4 (chimeric CX3CR1); assay: as above
[9] = biological target: hCX3CR1-2 (chimeric CX3CR1); assay: as above
[10] = biological target: hCX3CR1-1 (chimeric CX3CR1); assay: as above
[11] = biological target: hCX3CR1-3 (chimeric CX3CR1); assay: as above
[12] = biological target: mCX3CR1-4 (chimeric CX3CR1); assay: flow cytometry, chimeric CX3CR1-expressing Ba/F3 cells

Measured: binding

B1: m1F8-1 antibody (antibody, V domains shown)
VH: QVQLQQSGAELARPGASVKLSCKASGFTFTNYWMQWIKQRPGQGLEWIGAIYPGSGESRYTRKFKGKATLTADKSSSTAYMQLNSLASEDSAVYYCARWAGYSRNAAYWGQGTLVTVSA
VL: DVLMTQTPLSLPVSLGDQASISCRSSQSIVHSSGNTYLEWYLQKPGQSPKLLIYKVSNRFSGVPDRFSGSGSGTDFTLKISRVEAEDLGVYYCFQGSHIPPTFGGGTKLEIK
binds: [1] | [2] | [3] | [4] | [5]

B2: h1F8-2-2 antibody (antibody, IgG1, V domains shown)
VH: QVQLVQSGAEVKKPGSSVKVSCKASGFTFTNYWMQWIRQAPGQGLEWIGAIYPGSGESRYTRKFKGKATITADKSTSTAYMELSSLRSEDTAVYYCARWAGYSRNAAYWGQGTLVTVSS
VL: DIVMTQTPLSLPVTPGEPASISCRSRQSIVHSSGNTYLEWYLQKPGQSPQLLIYKVSNRFSGVPDRFSGSGSGTDFTLKISRVEAEDVGVYYCFQGSHIPPTFGGGTKVEIK
binds: [6] | [7] | [8] | [9] | [10] | [11]

B3: m1F8-2 antibody (antibody, V domains shown)
VH: QVQLQQSGAELARPGASVKLSCKASGFTFTNYWMQWIKQRPGQGLEWIGAIYPGSGESRYTRKFKGKATLTADKSSSTAYMQLNSLASEDSAVYYCARWAGYSRNAAYWGQGTLVTVSA
VL: DVLMTQTPLSLPVSLGDQASISCRSRQSIVHSSGNTYLEWYLQKPGQSPKLLIYKVSNRFSGVPDRFSGSGSGTDFTLKISRVEAEDLGVYYCFQGSHIPPTFGGGTKLEIK
binds: [12] | [1] | [2] | [3] | [4] | [5]
